Test results from paper PMC11045745.

Protein sequences, listed by entry. Tags and fused reporters are not part of them. Residues count along the entry.
UniProt O00571, 132-607: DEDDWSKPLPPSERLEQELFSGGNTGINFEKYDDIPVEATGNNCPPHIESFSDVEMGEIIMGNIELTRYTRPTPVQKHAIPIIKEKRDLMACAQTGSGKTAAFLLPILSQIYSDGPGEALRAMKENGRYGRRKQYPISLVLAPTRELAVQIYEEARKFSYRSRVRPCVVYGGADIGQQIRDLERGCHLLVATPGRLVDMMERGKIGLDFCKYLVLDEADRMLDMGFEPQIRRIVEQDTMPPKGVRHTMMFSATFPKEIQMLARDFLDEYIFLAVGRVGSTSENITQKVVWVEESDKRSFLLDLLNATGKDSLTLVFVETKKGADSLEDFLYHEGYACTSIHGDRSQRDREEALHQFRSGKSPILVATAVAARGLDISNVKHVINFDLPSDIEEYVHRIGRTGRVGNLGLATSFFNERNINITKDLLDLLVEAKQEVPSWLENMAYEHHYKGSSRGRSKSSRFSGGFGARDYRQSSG

Legend:
[1] = target: DDX3X core WT (Homo sapiens) (UniProt O00571); assay: EMSA; details: tight binding not observed, protein variant not stated in given legend, EMSA: 20 mM HEPES-NaOH pH 7.4, 100 mM NaCl, 5 mM DTT, 10% glycerol, 5 mM ATP/MgCl2 or ADP/EDTA, 100 nM RNA, recombinant protein, residues 132-607, protein details: His6-SUMO removed (Ulp1), two-Gly linker, label: 3'-FAM
[2] = target: DDX3X core WT (Homo sapiens) (UniProt O00571); assay: NMR (13C-1H HMQC); details: ADP, NMR: 35 C (30 C for UA-12mer), 40-50 uM protein (HMQC) or 100 uM RNA (19F), 5 mM ATP/MgCl2, recombinant protein, residues 132-607, protein details: His6-SUMO removed (Ulp1), two-Gly linker

“GGGCGGGCCCGCCC (double strand) [GC-14mer-FAM]”: binds more weakly ([1]; ADP/EDTA); binds more weakly ([1]; apo (no nucleotide)).
“GGGCGGGCCCGCCC (double strand) [GC-14mer]”: binds more weakly ([2]; tight binding not observed).
UUUUUUUUUU [poly-U10]: no binding ([2]; no spectral changes).

For some of these results: No signal at the amounts used counts as a negative. The exact form of at least one protein or probe is not confirmed. A weaker result is weaker than the reference pair of the same experiment. For some of these results: At least one verdict was read from the data and is not stated in words by the source.
